# Laboratory results published in PubChem BioAssay AID330 (DTP/NCI, 2004).
# The list shows only some results of the screen, not a fair sample: it gathers tests that were run many times, whatever their T/C, doses with no T/C, and many T/C values between a quarter and a half above the control. Further doses and runs are listed elsewhere. T/C gives the treated animals as a percentage of the vehicle group. Some entries give survivors of the animals treated and no T/C: the source holds a T/C of zero for them, seemingly a mark for toxic or unscored doses. Some doses without a T/C left all or most animals alive at the check, yet need not have been tolerated: survival well below the control is almost never listed, so the zero probably covers shortened survival too. Counts of survivors are from the toxicity check (mostly the fifth day) where no day follows; animals may have died later. Schedules are NCI's codes, taken here to give the interval after Q, in days (D) or hours (H), and the number of doses after X. Brackets with × count equal records among those shown. Some entries hold several experiments; the results are listed from low to high. Some structures stand for samples that the source files as different forms (salt, stereo form or complex); doses refer to the form tested. For survival time, the PubChem record calls one and a half times the control and up active, and a quarter to a half above the control has no call in these data; cut-offs in other NCI protocols can differ.
# System: P388 leukemia ip, CD2F1 mice, survival T/C
# Assay: NCI In Vivo Anticancer Drug Screen. Data for tumor model P388 Leukemia (intraperitoneal) in CD2F1 (CDF1) mice
# Details: T/C endpoint: median survival time, higher T/C = longer survival
# [1] = dose: 100.0 mg/kg/injection, schedule: Q01DX009 (ip), vehicle: gum acacia
# [2] = dose: 100.0 mg/kg/injection, schedule: Q04DX003 (ip), vehicle: saline
# [3] = dose: 60.0 mg/kg/injection, schedule: Q01DX005 (ip), vehicle: saline with Tween-80
# [4] = dose: 120.0 mg/kg/injection, schedule: Q01DX005 (ip), vehicle: saline with Tween-80
# [5] = dose: 240.0 mg/kg/injection, schedule: Q01DX005 (ip), vehicle: saline with Tween-80
# [6] = dose: 200.0 mg/kg/injection, schedule: Q01DX005 (ip), vehicle: saline with Tween-80
# [7] = dose: 400.0 mg/kg/injection, schedule: Q01DX009 (ip), vehicle: saline with Tween-80
# [8] = dose: 50.0 mg/kg/injection, schedule: Q01DX009 (ip), vehicle: Klucel (hydroxypropylcellulose) (HPC)
# [9] = dose: 200.0 mg/kg/injection, schedule: Q04DX003 (ip), vehicle: saline with Tween-80
# [10] = dose: 400.0 mg/kg/injection, schedule: Q04DX003 (ip), vehicle: saline with Tween-80
# [11] = dose: 200.0 mg/kg/injection, schedule: Q01DX005 (ip), vehicle: Klucel (hydroxypropylcellulose) (HPC)
# [12] = dose: 200.0 mg/kg/injection, schedule: Q01DX009 (ip), vehicle: saline
compound,measurement,setting,value
CC12OC1C(=O)C=CC2=O (stereo unspecified),survivor count,"dose: 10.0 mg/kg/injection, schedule: Q04DX002 (ip), vehicle: saline with Tween-80",2 of 6
same,survivor count,"dose: 20.0 mg/kg/injection, schedule: Q04DX002 (ip), vehicle: saline with Tween-80",0 of 6
same,survivor count,"dose: 100.0 mg/kg/injection, schedule: Q04DX002 (ip), vehicle: saline with Tween-80",0 of 6
same,survivor count,"dose: 200.0 mg/kg/injection, schedule: Q04DX002 (ip), vehicle: saline with Tween-80",0 of 6
same,survivor count,"dose: 400.0 mg/kg/injection, schedule: Q04DX002 (ip), vehicle: saline with Tween-80",0 of 6
CC(=O)C1=C(O)C2(C)c3c(O)c(C)c(O)c(C(C)=O)c3OC2CC1=O (stereo unspecified),T/C,[1],128 % of control
same,survivor count,[1],2 of 6
same,survivor count,"dose: 200.0 mg/kg/injection, schedule: Q01DX009 (ip), vehicle: gum acacia",0 of 6
O=C(CCN1CC1)OCCOC(=O)CCN1CC1,T/C,"dose: 33.0 mg/kg/injection, schedule: Q04DX003 (ip), vehicle: saline with Tween-80",133 % of control
same,survivor count,[2],6 of 6
C=CS(=O)(=NN1C(=O)c2ccccc2C1=O)c1ccc(C)cc1 (stereo unspecified),survivor count,"dose: 100.0 mg/kg/injection, schedule: Q01DX001 (ip), vehicle: Klucel (hydroxypropylcellulose) (HPC)",1 of 5
same,survivor count,"dose: 200.0 mg/kg/injection, schedule: Q01DX001 (ip), vehicle: Klucel (hydroxypropylcellulose) (HPC)",0 of 5 and 1 of 5
same,survivor count,"dose: 400.0 mg/kg/injection, schedule: Q01DX001 (ip), vehicle: Klucel (hydroxypropylcellulose) (HPC)",0 of 5 (2×)
C/C(=N\N1CN(C(C)C(=O)O)P(Nc2ncn[nH]2)N=C1N)c1cccs1 (stereo unspecified),survivor count,[3],2 of 6
same,survivor count,[4],0 of 6
same,survivor count,[5],0 of 6
COc1ccc(NC(CCN2CCN(c3ccccc3)CC2)=NC(C)(C)C)cc1,survivor count,"dose: 200.0 mg/kg/injection, schedule: Q01DX009 (ip), vehicle: Klucel (hydroxypropylcellulose) (HPC)",1 of 6
CCC(=O)c1cc(-c2cc(C(=O)CC)[nH]n2)n[nH]1,survivor count,"dose: 240.0 mg/kg/injection, schedule: Q01DX005 (ip), vehicle: Klucel (hydroxypropylcellulose) (HPC)",3 of 6
CCS(=O)(=O)[O][Sn]([CH2]C)([CH2]C)[O]S(=O)(=O)CC,T/C,"dose: 12.5 mg/kg/injection, schedule: Q04DX003 (ip), vehicle: saline",125 and 140 % of control
same,survivor count,"dose: 25.0 mg/kg/injection, schedule: Q04DX003 (ip), vehicle: saline",0 of 6
same,survivor count,[2],0 of 6
same,survivor count,"dose: 200.0 mg/kg/injection, schedule: Q04DX003 (ip), vehicle: saline",0 of 6
same,survivor count,"dose: 400.0 mg/kg/injection, schedule: Q04DX003 (ip), vehicle: saline",0 of 6
CCCCN1CCN(c2ccc([N+](=O)[O-])c3no[n+]([O-])c23)CC1,T/C,"dose: 64.0 mg/kg/injection, schedule: Q04DX003 (ip), vehicle: suspension in saline",127 % of control
CCCCCCCCCCCCCCCC[N+]1([O-])CCOCC1,survivor count,"dose: 100.0 mg/kg/injection, schedule: Q01DX009 (ip), vehicle: saline with Tween-80",5 of 6
CSCCC([NH-])C(=O)O.CSCCC([NH-])C(=O)O.[Zn+2] (stereo unspecified),survivor count,[6],0 of 6
CC(C)(C)C1CCC2(CC1)OCC1CCCN12 (stereo unspecified),survivor count,[6],0 of 6
COc1nc2[nH]c(C)cc(=O)c2c2ccccc12,survivor count,[5],6 of 6
COC(=S)SCN(CSC(=S)OC)c1ccccc1Cl,T/C,"dose: 264.0 mg/kg/injection, schedule: Q01DX009 (ip), vehicle: saline with Tween-80",131 % of control
same,T/C,[7],127 % of control
same,T/C,"dose: 600.0 mg/kg/injection, schedule: Q01DX009 (ip), vehicle: saline with Tween-80",140 % of control
C[N+](C)(C)Cc1ccccc1,survivor count,"dose: 25.0 mg/kg/injection, schedule: Q01DX009 (ip), vehicle: saline",1 of 6
same,survivor count,[8],0 of 6
same,survivor count,"dose: 100.0 mg/kg/injection, schedule: Q04DX003 (ip), vehicle: saline with Tween-80",0 of 6
same,survivor count,[9],0 of 6
same,survivor count,[10],0 of 6
NP(N)(=O)NC(=O)c1ccc(F)cc1,survivor count,[6],0 of 5
COc1ccc(O)c(CN2CCN(Cc3cc(OC)ccc3O)CC2)c1,survivor count,[3],6 of 6
same,survivor count,[4],6 of 6
same,survivor count,[5],6 of 6
CC(C)=C1CC(C)(C)N2CCCC12 (stereo unspecified),survivor count,"dose: 100.0 mg/kg/injection, schedule: Q01DX005 (ip), vehicle: Klucel (hydroxypropylcellulose) (HPC)",0 of 6
same,survivor count,[11],0 of 6
CCOC(=O)c1ccc[nH]1,survivor count,[7],1 of 6
CC(C)n1cc(C(C)(C)C)nc1SSc1nc(C(C)(C)C)cn1C(C)C,survivor count,[11],0 of 6
N/N=C1\c2ccccc2-c2cccc(O)c21,survivor count,[3],6 of 6
same,survivor count,[4],6 of 6
same,survivor count,[5],6 of 6
C(CCc1nnc2c(n1)CCCC2)Cc1nnc2c(n1)CCCC2,survivor count,[5],0 of 6
CCC(=O)c1nc(N)[nH]c1CC,survivor count,"dose: 20.0 mg/kg/injection, schedule: Q01DX005 (ip), vehicle: Klucel (hydroxypropylcellulose) (HPC)",3 of 6
same,survivor count,"dose: 40.0 mg/kg/injection, schedule: Q01DX005 (ip), vehicle: Klucel (hydroxypropylcellulose) (HPC)",0 of 6
same,survivor count,"dose: 80.0 mg/kg/injection, schedule: Q01DX005 (ip), vehicle: Klucel (hydroxypropylcellulose) (HPC)",0 of 6
OCCSC(=S)Nc1ccc(Cl)c(Cl)c1,survivor count,[12],4 of 6
CC1CCC(C(C)C)C(NC(=O)c2ccc[n+](C)c2)C1 (stereo unspecified),survivor count,"dose: 100.0 mg/kg/injection, schedule: Q04DX002 (ip), vehicle: saline",0 of 6
same,survivor count,"dose: 200.0 mg/kg/injection, schedule: Q04DX002 (ip), vehicle: saline",0 of 6
Cc1nnc(SCC2=C(C(=O)O)N3C(=O)C(NC(=O)Cn4cnnn4)C3SC2)s1 (stereo unspecified),T/C,"dose: 50.0 mg/kg/injection, schedule: Q01DX009 (ip), vehicle: saline","94, 105, 109, 121 % of control"
same,T/C,"dose: 100.0 mg/kg/injection, schedule: Q01DX009 (ip), vehicle: saline","98, 100, 109, 122 % of control"
same,T/C,[12],"103, 109, 114, 122 % of control"
CC(=O)OCC#CCN1CCCCC1,survivor count,"dose: 50.0 mg/kg/injection, schedule: Q01DX005 (ip), vehicle: saline",2 of 6
same,survivor count,"dose: 100.0 mg/kg/injection, schedule: Q01DX005 (ip), vehicle: saline",1 of 6
same,survivor count,"dose: 200.0 mg/kg/injection, schedule: Q01DX005 (ip), vehicle: saline",0 of 6
CC(NNC(=S)N1CCC(c2ccccc2)CC1)c1ccc2ccccc2n1 (stereo unspecified),survivor count,[11],3 of 5
CC(C)CCCC(C)C1CCC2C3CCC4CC(=O)C(C5(O)C(=O)Nc6ccccc65)CC4(C)C3CCC12C (stereo unspecified),survivor count,"dose: 25.0 mg/kg/injection, schedule: Q01DX009 (ip), vehicle: Klucel (hydroxypropylcellulose) (HPC)",6 of 6
same,survivor count,[8],6 of 6
same,survivor count,"dose: 100.0 mg/kg/injection, schedule: Q01DX009 (ip), vehicle: Klucel (hydroxypropylcellulose) (HPC)",6 of 6
CCCCCCC[n+]1ccccc1C#N,survivor count,[9],2 of 6
same,survivor count,[10],0 of 6
CCOC(=O)c1sc(=S)n(C)c1C,survivor count,"dose: 100.0 mg/kg/injection, schedule: Q01DX005 (ip), vehicle: saline with Tween-80",1 of 6
same,survivor count,[6],0 of 6
CC([NH-])C[NH-].O=S(=O)(O)O.[Pt+2] (stereo unspecified),T/C,"dose: 3.12 mg/kg/injection, schedule: Q04DX002 (ip), vehicle: saline",130 % of control
CCOC(=O)C1C/C(=N\OS(=O)(=O)c2ccc(C)cc2)c2ccc(OC)c(OC)c2C1 (stereo unspecified),survivor count,"dose: 200.0 mg/kg/injection, schedule: Q01DX009 (ip), vehicle: other",5 of 6
CC1OC(OC2C(O[C@H]3CC[C@@]4(C)C(=CC[C@H]5[C@@H]6C[C@@H]7O[C@]8(CC[C@H](C)CN8)[C@@H](C)[C@@H]7[C@@]6(C)CC[C@@H]54)C3)OC(CO)C(O)C2OC2OC(CO)C(O)C(O)C2O)C(O)C(O)C1O (stereo partly specified),survivor count,"dose: 50.0 mg/kg/injection, schedule: Q01DX009 (ip), vehicle: saline with Tween-80",4 of 6
